Results from US8765679B2, “Extract and peptides derived from Oryza sativa Japonica Group and uses thereof” (Yissum Research Development Company of The Hebrew …, priority 2010, dated 2014).

Assay: RA1-like immunoreactivity in sera and spleen (ELISA)
Set-up: species or system mice
Conditions: for RA1 immunoreactivity in serum: ELISA
Source text: Polyclonal antibodies were raised against RA1.

In the case of “AEMIDLAAKMLSEGRG (ORYZA SATIVA JAPONICA) [RA1, 16-mer peptide, amino acid residues 217-232 of Oryza sativa Japonica Group]”, the “RA1 in spleen per wet weight” value (BALB/C mice) is reported as 57 ng/g, the “RA1 immunoreactivity in serum” value (BALB/C mice (resistant strain)) is reported as 166 pg/mL and the RA1 in spleen (C57BL/6 mice) is reported as “no peptide could be detected”. The “RA1 immunoreactivity in serum” value (C57BL/6 mice (sensitive strain)) was “undetectable amount”.
